# In the supplement of paper PMC8728848:
# This is one part of the list.
# Assays:
# Assay in all cases: glycan array binding signal (z-score within array); higher = stronger binding
# Conditions in all cases: glycan notation: IUPAC condensed, linker removed
# [1] = target: Fuc(a1-2)Gal
# Outline: (§1)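 Glycan array binding is given as a within-array Z-score, which can be read as non-binding when negative. The arrays, 3228 of them, came from the Consortium for Functional Glycomics database and were retained only where the protein sequence was available. Z-scores were averaged across arrays of the same protein sequence at different concentrations or buffers and across linkers.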
# [2] = target: Fuc(a1-2)Gal(b1-3)GalNAc
# Outline: as §1
# [3] = target: Fuc(a1-2)Gal(b1-3)GalNAc(a1-3)[Fuc(a1-2)]Gal(b1-4)Glc
# Outline: as §1
# [4] = target: Fuc(a1-2)Gal(b1-3)GalNAc(a1-3)[Fuc(a1-2)]Gal(b1-4)GlcNAc
# Outline: as §1
# [5] = target: Fuc(a1-2)Gal(b1-3)GalNAc(b1-3)Gal
# Outline: as §1
# [6] = target: Fuc(a1-2)Gal(b1-3)GalNAc(b1-3)Gal(a1-4)Gal(b1-4)Glc
# Outline: as §1
# [7] = target: Fuc(a1-2)Gal(b1-3)GalNAc(b1-4)[Neu5Ac(a2-3)]Gal(b1-4)Glc
# Outline: as §1
# [8] = target: Fuc(a1-2)Gal(b1-3)GlcNAc
# Outline: as §1
# [9] = target: Fuc(a1-2)Gal(b1-3)GlcNAc(b1-2)Man(a1-3)[Fuc(a1-2)Gal(b1-3)GlcNAc(b1-2)Man(a1-6)]Man(b1-4)GlcNAc(b1-4)GlcNAc
# Outline: as §1
# [10] = target: Fuc(a1-2)Gal(b1-3)GlcNAc(b1-2)Man(a1-3)[Fuc(a1-2)Gal(b1-3)GlcNAc(b1-2)Man(a1-6)]Man(b1-4)GlcNAc(b1-4)[Fuc(a1-6)]GlcNAc
# Outline: as §1
# [11] = target: Fuc(a1-2)Gal(b1-3)GlcNAc(b1-3)Gal(b1-4)Glc
# Outline: as §1
# [12] = target: Fuc(a1-2)Gal(b1-3)GlcNAc(b1-3)GalNAc
# Outline: as §1
# [13] = target: Fuc(a1-2)Gal(b1-3)GlcNAc(b1-3)[Fuc(a1-2)Gal(b1-3)GlcNAc(b1-6)]GalNAc
# Outline: as §1
# [14] = target: Fuc(a1-2)Gal(b1-3)GlcNAc(b1-3)[Gal(b1-4)GlcNAc(b1-6)]Gal(b1-4)Glc
# Outline: as §1
# [15] = target: Fuc(a1-2)Gal(b1-3)GlcNAc(b1-3)[Neu5Ac(a2-6)Gal(b1-4)GlcNAc(b1-6)]Gal(b1-4)Glc
# Outline: as §1
# [16] = target: Fuc(a1-2)Gal(b1-3)GlcNAc6S
# Outline: as §1
# [17] = target: Fuc(a1-2)Gal(b1-3)[Fuc(a1-4)]GlcNAc
# Outline: as §1
# [18] = target: Fuc(a1-2)Gal(b1-3)[Fuc(a1-4)]GlcNAc(b1-2)Man(a1-3)[Fuc(a1-2)Gal(b1-3)[Fuc(a1-4)]GlcNAc(b1-2)Man(a1-3)]Man(b1-4)GlcNAc(b1-4)GlcNAc
# Outline: as §1
# [19] = target: Fuc(a1-2)Gal(b1-3)[Fuc(a1-4)]GlcNAc(b1-2)Man(a1-3)[Fuc(a1-2)Gal(b1-3)[Fuc(a1-4)]GlcNAc(b1-2)Man(a1-6)]Man(b1-4)GlcNAc(b1-4)[Fuc(a1-6)]GlcNAc(b1-4)[Fuc(a1-6)]GlcNAc
# Outline: as §1
# [20] = target: Fuc(a1-2)Gal(b1-3)[Fuc(a1-4)]GlcNAc(b1-3)[Fuc(a1-3)[Gal(b1-4)]GlcNAc(b1-6)]Gal(b1-4)Glc
# Outline: as §1
# [21] = target: Fuc(a1-2)Gal(b1-3)[Fuc(a1-4)]GlcNAc(b1-3)[Gal(b1-4)GlcNAc(b1-6)]Gal(b1-4)Glc
# Outline: as §1
# [22] = target: Fuc(a1-2)Gal(b1-4)Fuc(a1-3)]GlcNAc(b1-2)Man(a1-3)[Fuc(a1-2)Gal(b1-4)[Fuc(a1-3)]GlcNAc(b1-2)Man(a1-6)]Man(b1-4)GlcNAc(b1-4)GlcNAc
# Outline: as §1
# [23] = target: Fuc(a1-2)Gal(b1-4)Glc
# Outline: as §1
# [24] = target: Fuc(a1-2)Gal(b1-4)Glc6S
# Outline: as §1
# [25] = target: Fuc(a1-2)Gal(b1-4)GlcNAc
# Outline: as §1
# [26] = target: Fuc(a1-2)Gal(b1-4)GlcNAc(b1-2)Man
# Outline: as §1
# [27] = target: Fuc(a1-2)Gal(b1-4)GlcNAc(b1-2)Man(a1-3)[Fuc(a1-2)Gal(b1-4)GlcNAc(b1-2)Man(a1-6)]Man(b1-4)GlcNAc(b1-4)GlcNAc
# Outline: as §1
# [28] = target: Fuc(a1-2)Gal(b1-4)GlcNAc(b1-2)Man(a1-3)[Fuc(a1-2)Gal(b1-4)GlcNAc(b1-2)Man(a1-6)]Man(b1-4)GlcNAc(b1-4)[Fuc(a1-6)]GlcNAc
# Outline: as §1
# [29] = target: Fuc(a1-2)Gal(b1-4)GlcNAc(b1-2)[Fuc(a1-2)Gal(b1-4)GlcNAc(b1-4)]Man(a1-3)[Fuc(a1-2)Gal(b1-4)GlcNAc(b1-2)Man(a1-6)]Man(b1-4)GlcNAc(b1-4)GlcNAc
# Outline: as §1
# [30] = target: Fuc(a1-2)Gal(b1-4)GlcNAc(b1-3)Gal(b1-4)GlcNAc
# Outline: as §1
# [31] = target: Fuc(a1-2)Gal(b1-4)GlcNAc(b1-3)Gal(b1-4)GlcNAc(b1-2)Man(a1-3)[Fuc(a1-2)Gal(b1-4)GlcNAc(b1-3)Gal(b1-4)GlcNAc(b1-2)Man(a1-6)]Man(b1-4)GlcNAc(b1-4)GlcNAc
# Outline: as §1
# [32] = target: Fuc(a1-2)Gal(b1-4)GlcNAc(b1-3)Gal(b1-4)GlcNAc(b1-3)Gal(b1-4)GlcNAc
# Outline: as §1
# [33] = target: Fuc(a1-2)Gal(b1-4)GlcNAc(b1-3)GalNAc
# Outline: as §1
# [34] = target: Fuc(a1-2)Gal(b1-4)GlcNAc(b1-3)[Fuc(a1-2)Gal(b1-4)GlcNAc(b1-6)]GalNAc
# Outline: as §1
# [35] = target: Fuc(a1-2)Gal(b1-4)GlcNAc(b1-3)[Fuc(a1-3)[Gal(b1-4)]GlcNAc(b1-6)]Gal(b1-4)Glc
# Outline: as §1
# [36] = target: Fuc(a1-2)Gal(b1-4)GlcNAc(b1-6)GalNAc
# Outline: as §1
# [37] = target: Fuc(a1-2)Gal(b1-4)GlcNAc6S
# Outline: as §1
# [38] = target: Fuc(a1-2)Gal(b1-4)[Fuc(a1-3)]GlcNAc
# Outline: as §1
# [39] = target: Fuc(a1-2)Gal(b1-4)[Fuc(a1-3)]GlcNAc(b1-2)Man(a1-3)[Fuc(a1-2)Gal(b1-4)[Fuc(a1-3)]GlcNAc(b1-2)Man(a1-6)]Man(b1-4)GlcNAc(b1-4)[Fuc(a1-6)]GlcNAc
# Outline: as §1
# [40] = target: Fuc(a1-2)Gal(b1-4)[Fuc(a1-3)]GlcNAc(b1-2)[Fuc(a1-2)Gal(b1-4)[Fuc(a1-3)]GlcNAc(b1-4)]Man(a1-3)[Fuc(a1-2)Gal(b1-4)[Fuc(a1-3)]GlcNAc(b1-2)Man(a1-6)]Man(b1-4)GlcNAc(b1-4)GlcNAc
# Outline: as §1
# [41] = target: Fuc(a1-2)Gal(b1-4)[Fuc(a1-3)]GlcNAc(b1-3)Gal(b1-4)[Fuc(a1-3)]GlcNAc
# Outline: as §1
# [42] = target: Fuc(a1-2)Gal(b1-4)[Fuc(a1-3)]GlcNAc(b1-3)Gal(b1-4)[Fuc(a1-3)]GlcNAc(b1-3)Gal(b1-4)[Fuc(a1-3)]GlcNAc
# Outline: as §1
# [43] = target: Fuc(a1-2)Gal(b1-4)[Fuc(a1-3)]GlcNAc(b1-3)GalNAc
# Outline: as §1
# [44] = target: Fuc(a1-2)Gal(b1-4)[Fuc(a1-3)]GlcNAc(b1-3)[Neu5Ac(a2-6)Gal(b1-4)GlcNAc(b1-6)]Gal(b1-4)Glc
# Outline: as §1
# [45] = target: Fuc(a1-2)Gal3S(b1-4)GlcNAc
# Outline: as §1
# [46] = target: Fuc(a1-2)Gal6S(b1-3)GlcNAc
# Outline: as §1
# [47] = target: Fuc(a1-2)Gal6S(b1-3)GlcNAc6S
# Outline: as §1
# [48] = target: Fuc(a1-2)Gal6S(b1-4)Glc
# Outline: as §1
# [49] = target: Fuc(a1-2)Gal6S(b1-4)Glc6S
# Outline: as §1
# [50] = target: Fuc(a1-2)[Gal(a1-3)]Gal
# Outline: as §1
# [51] = target: Fuc(a1-2)[Gal(a1-3)]Gal(b1-3)GalNAc
# Outline: as §1
# [52] = target: Fuc(a1-2)[Gal(a1-3)]Gal(b1-3)GalNAc(b1-3)Gal(a1-4)Gal(b1-4)Glc
# Outline: as §1
# [53] = target: Fuc(a1-2)[Gal(a1-3)]Gal(b1-3)GlcNAc
# Outline: as §1
# [54] = target: Fuc(a1-2)[Gal(a1-3)]Gal(b1-3)GlcNAc(b1-2)Man(a1-3)[Fuc(a1-2)[Gal(a1-3)]Gal(b1-3)GlcNAc(b1-2)Man(a1-6)]Man(b1-4)GlcNAc(b1-4)GlcNAc
# Outline: as §1
# [55] = target: Fuc(a1-2)[Gal(a1-3)]Gal(b1-3)GlcNAc(b1-2)Man(a1-3)[Fuc(a1-2)[Gal(a1-3)]Gal(b1-3)GlcNAc(b1-2)Man(a1-6)]Man(b1-4)GlcNAc(b1-4)[Fuc(a1-6)]GlcNAc
# Outline: as §1
# [56] = target: Fuc(a1-2)[Gal(a1-3)]Gal(b1-3)GlcNAc(b1-3)GalNAc
# Outline: as §1
# [57] = target: Fuc(a1-2)[Gal(a1-3)]Gal(b1-3)GlcNAc(b1-6)GalNAc
# Outline: as §1
# [58] = target: Fuc(a1-2)[Gal(a1-3)]Gal(b1-4)Glc
# Outline: as §1
# [59] = target: Fuc(a1-2)[Gal(a1-3)]Gal(b1-4)GlcNAc
# Outline: as §1
# [60] = target: Fuc(a1-2)[Gal(a1-3)]Gal(b1-4)GlcNAc(b1-2)Man
# Outline: as §1
binder,measurement,setting,value
"XTP3-B-MRH1 (Homo sapiens), Q96DZ1 (protein) LLEPLFKQSSCSYRIESYWTYEVCHGKHIRQYHEEKETGQKINIHEYYLGNMLAKNLLFEKEREAEEKEKSNEIPTKNIEGQMTPYYPVGMGNGTPCSLKQNRPRSSTVMYICHPESKHEILSVAEVTTCEYEVVILTPLLCSHPKYRFRA",glycan array binding signal (z-score),[1],0.999
same,glycan array binding signal (z-score),[2],0.653
same,glycan array binding signal (z-score),[3],-0.222
same,glycan array binding signal (z-score),[4],-0.51
same,glycan array binding signal (z-score),[5],0.147
same,glycan array binding signal (z-score),[6],-0.962
same,glycan array binding signal (z-score),[7],0.229
same,glycan array binding signal (z-score),[8],-0.8
same,glycan array binding signal (z-score),[9],1.96
same,glycan array binding signal (z-score),[10],-1.59
same,glycan array binding signal (z-score),[11],-0.255
same,glycan array binding signal (z-score),[12],-0.536
same,glycan array binding signal (z-score),[13],-1.56
same,glycan array binding signal (z-score),[14],0.199
same,glycan array binding signal (z-score),[15],-1.03
same,glycan array binding signal (z-score),[16],0.065
same,glycan array binding signal (z-score),[17],-0.488
same,glycan array binding signal (z-score),[18],-0.463
same,glycan array binding signal (z-score),[19],0.479
same,glycan array binding signal (z-score),[20],-0.461
same,glycan array binding signal (z-score),[21],0.735
same,glycan array binding signal (z-score),[22],3.43
same,glycan array binding signal (z-score),[23],-1.56
same,glycan array binding signal (z-score),[24],0.43
same,glycan array binding signal (z-score),[25],0.13
same,glycan array binding signal (z-score),[26],-0.171
same,glycan array binding signal (z-score),[27],1.23
same,glycan array binding signal (z-score),[28],0.235
same,glycan array binding signal (z-score),[29],-0.21
same,glycan array binding signal (z-score),[30],-0.514
same,glycan array binding signal (z-score),[31],1.59
same,glycan array binding signal (z-score),[32],0.181
same,glycan array binding signal (z-score),[33],-0.58
same,glycan array binding signal (z-score),[34],-0.248
same,glycan array binding signal (z-score),[35],-0.151
same,glycan array binding signal (z-score),[36],-0.52
same,glycan array binding signal (z-score),[37],-1.16
same,glycan array binding signal (z-score),[38],0.698
same,glycan array binding signal (z-score),[39],0.643
same,glycan array binding signal (z-score),[40],-0.119
same,glycan array binding signal (z-score),[41],0.249
same,glycan array binding signal (z-score),[42],0.209
same,glycan array binding signal (z-score),[43],-0.352
same,glycan array binding signal (z-score),[44],0.595
same,glycan array binding signal (z-score),[45],0.083
same,glycan array binding signal (z-score),[46],-1.33
same,glycan array binding signal (z-score),[47],-0.535
same,glycan array binding signal (z-score),[48],0.127
same,glycan array binding signal (z-score),[49],-1.14
same,glycan array binding signal (z-score),[50],0.241
same,glycan array binding signal (z-score),[51],0.364
same,glycan array binding signal (z-score),[52],-1.56
same,glycan array binding signal (z-score),[53],-0.959
same,glycan array binding signal (z-score),[54],-0.637
same,glycan array binding signal (z-score),[55],-0.029
same,glycan array binding signal (z-score),[56],-0.684
same,glycan array binding signal (z-score),[57],0.707
same,glycan array binding signal (z-score),[58],0.657
same,glycan array binding signal (z-score),[59],-0.718
same,glycan array binding signal (z-score),[60],1.13

# No new results follow: an excerpt of the list.
binder,measurement,setting,value
"XTP3-B-MRH1 (Homo sapiens), Q96DZ1 (protein) LLEPLFKQSSCSYRIESYWTYEVCHGKHIRQYHEEKETGQKINIHEYYLGNMLAKNLLFEKEREAEEKEKSNEIPTKNIEGQMTPYYPVGMGNGTPCSLKQNRPRSSTVMYICHPESKHEILSVAEVTTCEYEVVILTPLLCSHPKYRFRA",glycan array binding signal (z-score),[54],-0.637
same,glycan array binding signal (z-score),[55],-0.029
same,glycan array binding signal (z-score),[56],-0.684
